# Like-named read-outs stand apart in the source and are kept apart here. Not every detail of the peptide structures is certain; ends, links or a residue may be inferred. Where no end group is shown, it is not given here.
# Assays:
# interleukin 6 (IL6) = test: Interleukin 6 in supernatants of Phenion FTS full skin models (Bio-Plex multiplex immunoassay); type: cell-based, Human; details: FIG. 4; 2.5 mM DNCB plus peptide; Phenion FTS skin model, 24 h
# Procedure: (§1) The investigations were carried out using Phenion FTS full skin models (Phenion, Henkel). These were maintained for 3 days at 37° C. and 7% CO2 in deep-well plates having a […] pore size in the cell culture inserts. The skin models were maintained in 1.5 ml of air-liquid interface medium without phenol red. The medium was changed daily. The test substances were dissolved in ethanol and incubated at room temperature for 24 h. After culturing for 24 h, 25 μl of the substance solution was dripped onto a sterile filter paper that had previously been laid on the skin model. The barrier peptide (0.5 mM AcRFAACAA) had previously been applied to the model as a solution in 100 mM phosphate buffer (pH 7.5). Alternatively, the barrier peptide was applied in a formulation having a content of 0.25% by weight.
# (§2) After culturing for a further 24 h, the models were harvested and one half embedded in OCT mounting medium (VWR Q-Path Chemicals), the other half snap-frozen in liquid nitrogen. The supernatant of each model was collected and stored at −20° C.
# The supernatants were then analyzed (FIGS. 2, 3 and 4).
# The supernatants of the Phenion FTS models were analyzed using the Bio-Plex Pro Human Cytokine Screening Panel (Bio-Rad) according to the manufacturer's protocol. […] The cytokine concentrations are calculated on the basis of the standard curves from the Bioplex system. […]
# Phenion skin models = test: H&E staining of cryosections of Phenion skin models; type: cell-based; details: FIG. 5D; 2.5 mM DNCB and 0.5 mM peptide
# Procedure: as §1, §2
# In further investigations, frozen sections were thawed and incubated for 10 min in 3.7% paraformaldehyde at RT. After three PBS wash steps and one minute in distilled water, they are stained for 3 min in hematoxylin solution. […]
# [1] = system: proteins haptenized by DNCB; test: Immunohistological analysis (DNP antibody) of proteins haptenized by DNCB in cryosections of Phenion skin models; type: cell-based; details: FIG. 6C/D; 2.5 mM DNCB plus 0.5 mM peptide
# [2] = Direct peptide reactivity assay (DPRA) with urushiols, Ellman's reagent, 24 h; details: FIG. 9; urushiols C15:1, C15:2, C15:3 (structures I-V); 24 h reaction, n=3
# Procedure: FIGS. 7A-E, 8, and 9 show investigations into the reactivity of peptides of the invention with allergens over time (x-axis) and after 24 h. The absorbance is plotted on the y-axis. The peptide-allergen reactions were realized according to a direct peptide reactivity assay. The test is referred to as the in-chemico method, that is to say no cells are used, but a chemical reaction is carried out.
# The native, still-unbound peptide is detected by reaction with Ellman's reagent and corresponding absorbance measurement. The direct peptide reactivity assay (DPRA) is a chemical method for predicting epidermal protein binding. DPRA uses for example HPLC to measure the depletion of peptides in solution after exposure to test chemicals.
# In the DPRA method, the absorbance at 415 nm is determined as the measured variable.
# The allergen concentration is in the investigations carried out a standard 5 mM and thus 10 times the concentration of the peptide used (0.5 mM).
# The reaction courses shown in FIGS. 8 and 9 were determined colorimetrically through the reaction of the peptide with Ellmann's reagent in a photometer. In this reaction, DTNB ((5,5′-dithiobis-2-nitrobenzoic acid, Ellmann's reagent) is cleaved and attached to the SH residue of the amino acid cysteine of the peptides of the invention (Ac-RFAACAA, RFAACAA). […]
# interleukin 8 (IL8) = details: Phenion FTS skin model, 24 h
substance,measurement,setting,value
"Ac-RFAACAA [Ac-RFAACAA, acetylarginine-phenylalanine-alanine-alanine-cysteine-alanine-alanine]","effect of the allergen on interleukin 6 (IL6) concentration, allergen plus peptide",interleukin 6 (IL6),completely nullified
same,"effect of the allergen on skin model histology (H&E), DNCB and peptide",Phenion skin models,completely nullified
same,"red staining of proteins haptenized by DNCB, DNCB and peptide",[1],extremely reduced red staining
same,reactivity and thus protective activity against urushiols,[2],very high reactivity
same,"effect of the allergen on interleukin 8 (IL8) concentration, allergen plus peptide","interleukin 8 (IL8); FIG. 2, 50 mM DNCB plus 0.5 mM peptide",completely nullified
same,"effect of the allergen on interleukin 8 (IL8) concentration, allergen plus peptide","interleukin 8 (IL8); FIG. 3, 2.5 mM cinnamaldehyde plus peptide",completely nullified

# Reference: patent US20230109157A1, “TOPICALLY APPLICABLE PREPARATION COMPRISING PEPTIDES AS ALLERGEN PROTECTION FOR THE SKIN” (BEIERSDORF AG, priority 2020, published 2023)
